The source of these data is publication PMC7109583.

These are yes or no findings as the source states them, for the method shown. Some binding calls cover weakened binding; strength is not graded here.

The assay deals with T1, CD81 (human), overexpressed on Jurkat CD4+ T cells from pcDNA3.1-CD81 (human) (UniProt P60033).
T1 sequence: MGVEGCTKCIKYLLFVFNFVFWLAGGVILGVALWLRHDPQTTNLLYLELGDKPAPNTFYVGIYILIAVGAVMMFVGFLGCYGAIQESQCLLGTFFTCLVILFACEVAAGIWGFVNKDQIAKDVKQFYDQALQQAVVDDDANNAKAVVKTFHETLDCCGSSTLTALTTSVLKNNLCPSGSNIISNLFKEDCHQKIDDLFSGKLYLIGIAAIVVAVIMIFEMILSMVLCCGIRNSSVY
The experiment in a line: flow cytometry on cells; 7P-FITC incubated with CD4+ T cells (Jurkat cells) transfected with pcDNA3.1-CD81 or the pcDNA3.1 vector; bound 7P-FITC read by flow cytometry; only the binder purified. (In general: Flow cytometry measures light scatter and fluorescence of single cells or particles in a stream.)

Turning to GQTYTSG (conjugated with FITC (position not given)) [7P conjugated with FITC (7-amino acid HVR1 mimic peptide 7P, GQTYTSG)], the binding entry is reported as “binds”.
